Data: the supplement of paper PMC12889115
This is one part of the list. These are raw signals, not scaled to a control.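 In the initial screen, polymyxin B was used at a concentration that permeabilizes Salmonella's outer membrane but not its inner membrane. Maximum growth was set by DMSO wells with or without polymyxin B. Since plates varied, data were ranked per plate, and compounds giving the lowest OD600 advanced as hits.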

Test system: Salmonella enterica serovar Typhimurium SL1344
Test: bacterial growth OD600 after 18 h with compound and polymyxin B; higher = more bacterial growth (less inhibition)
Conditions: 50 µM, Mueller-Hinton broth

Structure (SMILES) | bacterial growth OD600 (polymyxin B 1 µg/mL) | bacterial growth OD600 (polymyxin B 0.75 µg/mL)
COc1cccc(OCc2nc(C(=O)N(C)CC(C)C)co2)c1 | 0.889 | –
CC(C)CNCC1(O)CCCN(Cc2cccc(F)c2F)C1=O (stereo not given) | – | 0.985
O=C(NCCC(c1ccccc1)c1ccccc1)C1CC12CCN(C(=O)Cc1cccs1)CC2 (stereo not given) | – | 0.017
COc1ccc(-c2noc(-c3ccc(OCC4(C)CCCNC4)nc3)n2)cc1 (stereo not given) | 0.046 | –
CC(C)c1cc(C(=O)N2CCCC(C(=O)Nc3ccccc3Oc3cccnc3)C2)no1 (stereo not given) | 0.365 | –
CC(C)CNc1ccc(C(=O)NCCC2CCCCN2C)cn1 (stereo not given) | 0.958 | –
CCC1CN(CC=C(C)C)Cc2cc(OC)ccc2O1 (stereo not given) | – | 0.798
CCN(Cc1cnc(SC)nc1)CC1CCCN(CCc2cccc(OC)c2)C1 (stereo not given) | 0.861 | –
CC(=O)Nc1ccc(CN2CCCCC2C(=O)Nc2ccc(-n3cccn3)cc2)cc1 (stereo not given) | 0.945 | –
C/C=C(\C)CN1CCC(Oc2ccc(C(=O)NCCN(C)C)cc2Cl)CC1 | 1.12 | –
COc1ccccc1C1CN(Cc2coc3ccccc3c2=O)Cc2ccccc2O1 (stereo not given) | – | 0.881
Cc1cccc(C)c1Oc1ncccc1CNC(=O)C(C)n1ccnc1 (stereo not given) | 1.08 | –
Cc1c(-c2ccccc2F)[nH]c2ccc(CNC(=O)C3CCCN(C(N)=O)C3)cc12 (stereo not given) | 0.772 | –
COc1ccc(NC2CCCN(C(=O)c3ccc(CSC)o3)C2)cc1OC (stereo not given) | 0.867 | –
COc1ccc(CCN2CCCC(CN(C)Cc3cccc(C(C)=O)c3)C2)cc1 (stereo not given) | – | 0.797
CCOC(=O)C1(CCCc2ccccc2)CCN(C(=O)c2cncs2)CC1 | 0.711 | –
CCOC(=O)C1(Cc2ccccc2)CCCN(S(=O)(=O)N(C)C)C1 (stereo not given) | 0.934 | –
O=C(NC1CC(=O)N(CCCc2ccccc2)C1)C1CCC1 (stereo not given) | 0.911 | –
O=C(CCC1(Cc2ccc(Cl)cc2)CCC(=O)N1)NCCCc1ccccc1 (stereo not given) | – | 0.812
C/C=C(\C)CN1CCC2(CC1)c1ccccc1[C@@H](NC(=O)c1cccc(F)c1)[C@@H]2OC | – | 0.801

Some of these compounds in order of length of the SMILES, largest number first.
Structure (SMILES) | bacterial growth OD600 (polymyxin B 1 µg/mL) | bacterial growth OD600 (polymyxin B 0.75 µg/mL)
O=C(CCC1(Cc2ccc(Cl)cc2)CCC(=O)N1)NCCCc1ccccc1 (stereo not given) | – | 0.812
COc1ccc(NC2CCCN(C(=O)c3ccc(CSC)o3)C2)cc1OC (stereo not given) | 0.867 | –
O=C(NC1CC(=O)N(CCCc2ccccc2)C1)C1CCC1 (stereo not given) | 0.911 | –
